Reference: PubChem BioAssay AID1259415 (National Center for Advancing Translational Sciences (NCATS), 2018)
The whole screen tested about 410,000 compounds, of which about 18,000 (4.4%) were called active. The inconclusive results got no clear call from the source; some entries with a clear call stand among them for comparison. Rule as the data show it: active = activity change below about -60%; inconclusive = no clear call, values can overlap the other calls; inactive = above about -39%.
% is scaled to controls: 0 for no effect and ±100 for the full control effect.

Assay: qHTS Assay for inhibitors of the human cytomegalovirus (HCMV)
Settings: HFF cells, HCMV-luciferase reporter, 72 h; at 57.5 µM; hits give low values
Method in brief: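 HFF cells seeded 16 h at 37C, treated with compounds, infected with luciferase-reporter HCMV at MOI 1 PFU/cell; luciferase read at 72 h post infection, normalized to buffer-only and Salinomycin controls.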
With `CCOc1ccccc1NC(=O)C1CCN(S(=O)(=O)c2ccc(OC)c(OC)c2)CC1` the activity change, negative = inhibition was inconclusive: -48.2%.
In the case of `Cc1ccc(-c2nn(-c3cc(N4CCNCC4)ccc3[N+](=O)[O-])c(=O)c3ccccc23)cc1`, the activity change, negative = inhibition is reported as active: -68.1%.
In the case of `Cc1cc(C)cc(NC(=O)COC(=O)CCn2c(C)csc2=O)c1`, the activity change, negative = inhibition is reported as inactive: -5.06%.
With `O=C(Cn1cnc2ccccc21)NCCCN1CCOCC1` the activity change, negative = inhibition was inactive: 27.1%.
In the case of `Cc1nc2ccc(S(=O)(=O)N(C)CC(=O)Nc3ccc(C(C)C)cc3)cc2s1`, the activity change, negative = inhibition is reported as active: -60.4%.
In the case of `CC(=O)c1ccc(C(=O)Nc2ccc3c(c2)C(=O)NC3=O)cc1`, the activity change, negative = inhibition is reported as inconclusive: -45.8%.
With `Nc1nc(-c2cccc(F)c2)cs1` the activity change, negative = inhibition was inactive: 3.31%.
For `Nc1nc(-c2ccc([N+](=O)[O-])cc2)cs1`, the activity change, negative = inhibition was active: -79.3%.
In the case of `O=C(CSc1nc(-c2ccccc2)cn1-c1ccccc1F)Nc1ccc(F)cc1`, the activity change, negative = inhibition is reported as inactive: -12.2%.
For `CC1CCCC(C)N1C(=O)COC(=O)c1ccc(S(=O)(=O)N(C)c2ccccc2)cc1` (centres undefined), the activity change, negative = inhibition was inconclusive: -43.7%.
In the case of `COc1ccc(CCNC(=O)COc2coc(CN3c4ccccc4CC3C)cc2=O)cc1OC` (centres undefined), the activity change, negative = inhibition is reported as inconclusive: -45.3%.
For `CCc1nnc(NS(=O)(=O)c2ccc(NCc3cc(Cl)ccc3O)cc2)s1`, the activity change, negative = inhibition was inconclusive: -45.5%.
With `CC1CCN(C(c2ccccc2)c2sc3nc(-c4ccco4)nn3c2O)CC1` (centres undefined) the activity change, negative = inhibition was inconclusive: -42.6%.
For `CC[C@@H](Nc1ncnc2c1oc1ccccc12)C(=O)O`, the activity change, negative = inhibition was inconclusive: -41.2%.
In the case of `C#Cc1ccc(CN2CCCC(C(=O)Nc3ccccc3Oc3cccnc3)C2)cc1` (centres undefined), the activity change, negative = inhibition is reported as inactive: 0%.
For `COc1ccc(Cl)cc1NC(=O)CSc1cn(CC(=O)N2CCCCC2)c2ccccc12`, the activity change, negative = inhibition was active: -71.9%.
For `O=C(COc1ccc(Br)cc1Br)NC(=S)Nc1cccc(CO)c1`, the activity change, negative = inhibition was inactive: 165%.
With `CCN(C(=O)c1ccc(NC(=O)C2CCCCC2C(=O)O)cc1)c1ccccc1` (centres undefined) the activity change, negative = inhibition was inactive: -7.62%.
With `CN(C)CCC(C(=O)c1ccccc1)c1ccncc1` (centres undefined) the activity change, negative = inhibition was inconclusive: -53.1%.
For `COc1cccc(N2C(=O)CN(Cc3cc(OC)c(OC)c(OC)c3)C2=S)c1`, the activity change, negative = inhibition was inactive: -25.1%.
In the case of `COc1ccc(N=C2C(=O)N3c4c(cccc42)C(C)=CC3(C)C)cc1`, the activity change, negative = inhibition is reported as active: -62.6%.
With `CC(=O)Nc1ccc(NC(=O)C(C)OC(=O)c2cccc(S(=O)(=O)N3CCCC3)c2)cc1` (centres undefined) the activity change, negative = inhibition was inactive: 3.05%.
With `O=C(CSc1ncn[nH]1)c1cc2ccccc2o1` the activity change, negative = inhibition was inconclusive: -44.2%.
For `Cc1ccc(NC(=O)C2CCN(S(=O)(=O)c3ccc4c(c3)CC(C)N4C(=O)C3CCC3)CC2)nc1` (centres undefined), the activity change, negative = inhibition was active: -86%.
For `CCOC(=O)N1CCN(C(=O)COC(=O)CNC(=O)c2ccc(C)cc2)CC1`, the activity change, negative = inhibition was inactive: -0.88%.
With `Cc1cc(C2=CC(=O)C[C@H](c3ccc(F)cc3)C2)ccc1F` the activity change, negative = inhibition was active: -61.8%.
With `COc1cc(C(C)=O)ccc1OCC(=O)OCC(=O)c1cc(C)n(CC2CCCO2)c1C` (centres undefined) the activity change, negative = inhibition was inconclusive: -48.1%.
For `CCOC(=O)CNC(=O)N1CCCC(Cc2ccccc2)(C(=O)OCC)C1` (centres undefined), the activity change, negative = inhibition was inactive: -2.34%.
With `CCn1cc(/C=N\NC(=O)c2c[nH]c3ccccc23)c(C)n1` the activity change, negative = inhibition was inactive: -2.54%.
With `Fc1ccc(Nc2ncnc3sc4c(c23)CCC4)cc1` the activity change, negative = inhibition was inconclusive: -47.6%.
With `CCOC(=O)C1=C(C)N=c2s/c(=C\c3ccc(O)c([N+](=O)[O-])c3)c(=O)n2C1c1ccccc1OC` (centres undefined) the activity change, negative = inhibition was inconclusive: -52.2%.
For `Cc1ccc(Cl)cc1N1CCN(Cc2nc3c(c(=O)[nH]c(=O)n3C)n2CCc2ccccc2)CC1`, the activity change, negative = inhibition was inconclusive: -50.1%.
With `CC(C(=O)Nc1cccc([N+](=O)[O-])c1)N1CCN(C/C=C/c2ccccc2)CC1` (centres undefined) the activity change, negative = inhibition was inactive: -10%.
In the case of `Cc1cc(C)c2c(NC(=O)CCl)nn(C)c2n1`, the activity change, negative = inhibition is reported as active: -110%.
In the case of `COc1ccccc1CNc1nc2ccc(C)cc2n2nnnc12`, the activity change, negative = inhibition is reported as inconclusive: -47%.
With `OC(CNC1CCCCC1)CNC1CCCCC1` the activity change, negative = inhibition was inactive: -23.3%.
For `COc1ccc(-n2nc(C(=O)NCC(=O)N(C)Cc3ccccc3)c3ccccc3c2=O)cc1OC`, the activity change, negative = inhibition was inconclusive: -45.6%.
With `CCCN(C(=O)c1cn(C)c(=O)c2cc(OC)c(OC)cc12)c1ccc(CC)cc1` the activity change, negative = inhibition was inactive: -6.89%.
For `Cc1oc2c(c(C)cc3oc(=O)c(CC(=O)NCCC(=O)O)c(C)c32)c1C`, the activity change, negative = inhibition was inconclusive: -48.7%.
With `Cc1ccnc(NC(=O)CCC(=O)N(CC(=O)NCc2ccc(F)cc2)Cc2ccco2)c1` the activity change, negative = inhibition was inconclusive: -43.6%.
With `CCNc1nc(NCC)nc(N/N=C/c2ccc([N+](=O)[O-])o2)n1` the activity change, negative = inhibition was inconclusive: -58.1%.
With `COc1ccc(-n2cnc3sccc3c2=O)cc1` the activity change, negative = inhibition was inconclusive: -47.1%.
For `COc1ccc(CC(=O)Nc2ccc(S(=O)(=O)N3CCCC3)cc2)c(OC)c1`, the activity change, negative = inhibition was inactive: -4.93%.
In the case of `COc1cc2c(cc1OC)CN(CC(=O)Nc1ccc(Cl)cc1Cl)CC2`, the activity change, negative = inhibition is reported as inconclusive: -53.8%.
With `O=C1CCCc2oc3ccc(NS(=O)(=O)c4cccc5cccnc45)cc3c21` the activity change, negative = inhibition was inconclusive: -47.2%.
In the case of `COC(=O)c1cnc(N2CCN(c3ccc(OC)cc3)CC2)c2ccccc12`, the activity change, negative = inhibition is reported as inconclusive: -43.5%.
With `CC(C)c1ccc(NC(=O)C2Cc3c(-c4ccccc4Oc4ccccc4)ccnc3O2)cc1` (centres undefined) the activity change, negative = inhibition was active: -60.8%.
With `CN(c1ccccc1)S(=O)(=O)c1cc(C(=O)c2nccn2C)ccc1Cl` the activity change, negative = inhibition was inconclusive: -47.6%.
In the case of `COc1ccc(N2CCN(C(=O)CNC(=O)c3ccc4ccccc4c3)CC2)cc1`, the activity change, negative = inhibition is reported as inconclusive: -44.7%.
For `CN(C)CCCNC(=O)/C(=C\c1ccc(-c2ccc(Br)cc2)o1)NC(=O)c1ccccc1`, the activity change, negative = inhibition was inconclusive: -50.4%.
With `Cc1ccccc1OCC(=O)Nc1c(C(=O)Nc2ccccc2F)oc2ccccc12` the activity change, negative = inhibition was inactive: 11.7%.
For `O=C(CCn1c(=O)oc2ccccc21)N1CCCCCC1`, the activity change, negative = inhibition was inactive: -3.72%.
In the case of `CC(C)N1CCc2c(sc(NC(=O)c3ccco3)c2C(N)=O)C1`, the activity change, negative = inhibition is reported as active: -76.1%.
For `CC(=O)N1CCN(c2nnnn2-c2ccccc2)CC1`, the activity change, negative = inhibition was inactive: 5.31%.
In the case of `CCOc1ccc(C(=O)Nc2ccc3nc(Nc4cccc(C(F)(F)F)c4)cc(C)c3c2)cc1OCC`, the activity change, negative = inhibition is reported as active: -62.5%.
For `COc1ccc([C@H]2C[C@@H](O)[C@H](n3cc(-c4ccc(F)cc4)nn3)CN2CC2CCCCC2)cc1`, the activity change, negative = inhibition was inactive: 8.16%.
For `COc1cc(C2c3[nH]c4ccccc4c3CC3COC(=O)N32)cc(OC)c1O` (centres undefined), the activity change, negative = inhibition was inconclusive: -53.2%.
For `COc1ccc(C(CC(=O)Nc2cc(Cl)c(OC)cc2OC)N2Cc3ccccc3C2=O)cc1` (centres undefined), the activity change, negative = inhibition was inconclusive: -54.6%.
For `O=C(Nc1ccc(NC(=O)c2sc3ccccc3c2Cl)cc1)c1ccco1`, the activity change, negative = inhibition was active: -75.8%.
With `O=C(NC1CCCCC1)C(c1ccc(Cl)cc1)N1CCC2(CC1)OCCO2` (centres undefined) the activity change, negative = inhibition was inconclusive: -50.2%.
With `Nc1nonc1C(=O)N/N=C/c1ccc([N+](=O)[O-])o1` the activity change, negative = inhibition was inconclusive: -52.2%.
With `Cc1cccc(-c2nc(CN3CCCC(C(=O)NC4CCCC4)C3)c(C)o2)c1` (centres undefined) the activity change, negative = inhibition was inactive: 29.4%.
For `CC(C)C(Sc1nc(-c2ccccc2)cc(-c2ccccc2)c1C#N)C(=O)O` (centres undefined), the activity change, negative = inhibition was inconclusive: -43.2%.
In the case of `Cc1cccc(Cn2cnc3c(nnn3Cc3ccc(Cl)cc3)c2=O)c1`, the activity change, negative = inhibition is reported as inactive: -11.6%.
In the case of `O=C(COC(=O)c1ccc2c(=O)n3c(nc2c1)CCC3)NC1CCS(=O)(=O)C1` (centres undefined), the activity change, negative = inhibition is reported as inconclusive: -41.4%.
In the case of `CC(C)c1ccc(CC(=O)N2CCC2(C)C(=O)Nc2cccc(C#N)c2)cc1` (centres undefined), the activity change, negative = inhibition is reported as inactive: 1.84%.
In the case of `O=C(Cc1ccccc1[N+](=O)[O-])NCc1ccc(Cl)cc1`, the activity change, negative = inhibition is reported as inactive: 93.9%.
In the case of `O=[N+]([O-])c1ccc2c(c1)ncn2CCc1ccccc1`, the activity change, negative = inhibition is reported as inconclusive: -44.2%.
With `Cc1cnc(NC(=O)C2CCCC2)s1` the activity change, negative = inhibition was inconclusive: -50.1%.
With `CCOc1ccccc1-n1nnnc1SCC(=O)OC` the activity change, negative = inhibition was inconclusive: -44.9%.
In the case of `CCCC(=O)Nc1ccc(NC(=O)c2ccccc2)nc1`, the activity change, negative = inhibition is reported as inactive: 29.1%.
In the case of `Cc1c(/C(O)=C2\C(=O)C(=O)N(CCCN(C)C)C2c2ccccc2)cnn1-c1ccccc1` (centres undefined), the activity change, negative = inhibition is reported as inconclusive: -50.7%.
In the case of `COc1ccc2[nH]c3c(c2c1)[C@@H]1CCN2C(=O)CCC[C@H](C3)[C@H]12`, the activity change, negative = inhibition is reported as active: -61.3%.
With `CC(=O)O[C@@]12CO[C@@H]1C[C@@H](O)[C@@]1(C)C(=O)[C@H](O)C3=C(C)[C@@H](OC(=O)[C@H](O)[C@@H](NC(=O)c4ccccc4)c4ccccc4)C[C@@](O)([C@@H](OC(=O)c4ccccc4)C12)C3(C)C` (some centres undefined) the activity change, negative = inhibition was inconclusive: -46.2%.
With `COc1ccc(CCNC(=O)CN2C(=O)COc3ccc(S(=O)(=O)N4CCCC4)cc32)cc1OC` the activity change, negative = inhibition was inconclusive: -43%.
For `COc1ccc2[nH]c(=O)c(CN(Cc3ccccc3)C(=S)NCC3CCCO3)cc2c1` (centres undefined), the activity change, negative = inhibition was inconclusive: -49.7%.
In the case of `COC(=O)c1ccccc1NC(=O)CCCn1nc(C)c2c(C)n(-c3ccccc3)nc2c1=O`, the activity change, negative = inhibition is reported as inconclusive: 0%.
In the case of `CCOc1ccccc1CNC(=O)c1ccc(-n2c(C)cc3c2CCC(C)C3)cc1` (centres undefined), the activity change, negative = inhibition is reported as inconclusive: -45.2%.
In the case of `Cc1ccc(-c2onc(C)c2C)cc1S(=O)(=O)N1CCN(c2ccccc2F)CC1`, the activity change, negative = inhibition is reported as inconclusive: -51.4%.
For `Cc1cc(C)c(C(=O)CSc2n[nH]c(-c3ccncc3)n2)c(C)c1`, the activity change, negative = inhibition was active: -65.8%.
With `CC(C)c1ccc(S(=O)(=O)N2CCN(C(=O)C3CCN(C(=O)c4ccc(F)cc4)CC3)CC2)cc1` the activity change, negative = inhibition was inconclusive: -54.8%.
With `CCN(Cc1ccccc1)C(=O)CSc1nc(C)cc(C)c1C#N` the activity change, negative = inhibition was inconclusive: -59.2%.
With `COC(=O)c1sc2ncccc2c1OCc1cccc(Cl)c1` the activity change, negative = inhibition was active: -102%.
In the case of `Cc1cc(C)n(CCNC(=O)CC2C(=O)NCCN2Cc2ccc(C)o2)n1` (centres undefined), the activity change, negative = inhibition is reported as inconclusive: -49%.
